Results published in the supplement of paper PMC10849652.
This is one part of the list.

By UniProt entry, the sequences of proteins in these tests, tags left out. Where a name states a change or a piece, a line headed by the entry shows the natural chain unless it says otherwise.
UniProt A6NDG6: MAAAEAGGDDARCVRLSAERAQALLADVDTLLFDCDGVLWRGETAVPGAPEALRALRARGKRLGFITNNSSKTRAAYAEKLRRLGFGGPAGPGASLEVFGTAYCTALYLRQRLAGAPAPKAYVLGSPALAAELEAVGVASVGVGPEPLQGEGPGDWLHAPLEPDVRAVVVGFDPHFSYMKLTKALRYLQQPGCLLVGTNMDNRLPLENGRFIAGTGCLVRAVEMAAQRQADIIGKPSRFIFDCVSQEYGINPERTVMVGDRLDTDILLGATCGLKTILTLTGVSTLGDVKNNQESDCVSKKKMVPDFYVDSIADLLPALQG
UniProt Q8N4L2: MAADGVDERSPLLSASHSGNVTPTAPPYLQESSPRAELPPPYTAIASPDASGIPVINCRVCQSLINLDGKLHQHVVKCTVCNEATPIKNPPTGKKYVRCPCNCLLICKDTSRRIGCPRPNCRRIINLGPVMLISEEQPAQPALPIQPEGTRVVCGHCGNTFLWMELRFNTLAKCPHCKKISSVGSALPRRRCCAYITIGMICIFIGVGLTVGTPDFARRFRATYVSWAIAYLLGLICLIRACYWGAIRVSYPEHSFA
UniProt Q9Y263: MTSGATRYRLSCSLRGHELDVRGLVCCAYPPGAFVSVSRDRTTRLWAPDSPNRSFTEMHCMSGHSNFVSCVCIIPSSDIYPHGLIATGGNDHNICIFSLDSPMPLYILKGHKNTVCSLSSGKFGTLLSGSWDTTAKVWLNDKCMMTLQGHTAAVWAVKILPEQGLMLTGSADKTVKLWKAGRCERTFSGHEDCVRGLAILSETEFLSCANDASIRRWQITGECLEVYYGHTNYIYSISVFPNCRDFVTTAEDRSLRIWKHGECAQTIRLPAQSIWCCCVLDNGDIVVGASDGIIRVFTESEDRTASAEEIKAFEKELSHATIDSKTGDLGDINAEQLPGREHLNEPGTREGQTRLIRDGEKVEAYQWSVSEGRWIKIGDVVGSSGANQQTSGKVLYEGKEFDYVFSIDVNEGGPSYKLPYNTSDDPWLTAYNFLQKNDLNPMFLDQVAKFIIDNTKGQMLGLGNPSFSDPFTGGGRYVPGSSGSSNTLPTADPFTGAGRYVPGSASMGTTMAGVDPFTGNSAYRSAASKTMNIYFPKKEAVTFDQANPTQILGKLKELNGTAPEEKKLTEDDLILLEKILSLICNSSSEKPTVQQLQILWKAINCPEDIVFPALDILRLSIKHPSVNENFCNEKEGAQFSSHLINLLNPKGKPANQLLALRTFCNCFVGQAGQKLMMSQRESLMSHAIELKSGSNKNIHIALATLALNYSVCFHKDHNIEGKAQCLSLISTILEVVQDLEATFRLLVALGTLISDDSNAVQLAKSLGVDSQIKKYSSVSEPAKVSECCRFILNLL
UniProt Q99623, whole entry, looked up: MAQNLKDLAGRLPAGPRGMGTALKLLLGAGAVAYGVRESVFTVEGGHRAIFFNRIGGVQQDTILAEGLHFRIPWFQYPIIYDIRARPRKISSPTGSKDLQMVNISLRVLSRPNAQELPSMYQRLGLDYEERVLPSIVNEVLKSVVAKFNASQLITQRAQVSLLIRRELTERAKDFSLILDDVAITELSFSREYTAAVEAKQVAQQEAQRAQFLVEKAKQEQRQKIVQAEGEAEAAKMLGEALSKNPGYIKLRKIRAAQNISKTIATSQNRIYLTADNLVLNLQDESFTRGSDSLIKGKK
UniProt P46019: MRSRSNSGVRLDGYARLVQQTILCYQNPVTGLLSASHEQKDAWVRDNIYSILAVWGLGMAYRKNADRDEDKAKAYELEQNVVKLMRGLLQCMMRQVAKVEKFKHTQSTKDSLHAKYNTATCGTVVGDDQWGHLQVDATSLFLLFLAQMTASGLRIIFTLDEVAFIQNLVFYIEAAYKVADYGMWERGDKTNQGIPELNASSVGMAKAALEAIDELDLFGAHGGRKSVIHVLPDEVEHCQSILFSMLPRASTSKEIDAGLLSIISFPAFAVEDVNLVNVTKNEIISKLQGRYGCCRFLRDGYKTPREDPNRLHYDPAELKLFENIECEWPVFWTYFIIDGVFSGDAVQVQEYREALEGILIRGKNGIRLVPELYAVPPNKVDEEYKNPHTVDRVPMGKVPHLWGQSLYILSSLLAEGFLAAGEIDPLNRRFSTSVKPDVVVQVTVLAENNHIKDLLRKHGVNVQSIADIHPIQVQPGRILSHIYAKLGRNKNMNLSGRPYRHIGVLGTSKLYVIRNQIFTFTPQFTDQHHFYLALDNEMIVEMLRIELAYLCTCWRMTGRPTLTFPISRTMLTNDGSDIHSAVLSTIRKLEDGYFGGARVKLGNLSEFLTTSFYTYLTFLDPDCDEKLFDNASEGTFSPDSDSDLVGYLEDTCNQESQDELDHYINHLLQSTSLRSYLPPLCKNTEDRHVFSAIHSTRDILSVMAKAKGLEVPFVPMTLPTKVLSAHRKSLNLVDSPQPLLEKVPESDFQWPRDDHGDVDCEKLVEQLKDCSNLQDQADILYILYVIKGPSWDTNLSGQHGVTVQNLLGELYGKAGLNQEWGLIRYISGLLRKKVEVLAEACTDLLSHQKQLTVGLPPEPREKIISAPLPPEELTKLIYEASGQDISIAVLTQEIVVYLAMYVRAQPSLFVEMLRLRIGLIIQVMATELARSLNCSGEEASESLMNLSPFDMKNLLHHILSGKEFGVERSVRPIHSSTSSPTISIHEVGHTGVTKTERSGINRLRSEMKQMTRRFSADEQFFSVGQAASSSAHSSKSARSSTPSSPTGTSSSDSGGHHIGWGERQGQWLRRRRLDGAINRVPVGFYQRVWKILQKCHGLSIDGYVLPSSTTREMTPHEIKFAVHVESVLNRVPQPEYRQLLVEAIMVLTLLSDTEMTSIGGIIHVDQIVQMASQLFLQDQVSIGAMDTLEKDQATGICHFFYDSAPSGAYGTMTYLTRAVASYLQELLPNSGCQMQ
UniProt Q32NB8: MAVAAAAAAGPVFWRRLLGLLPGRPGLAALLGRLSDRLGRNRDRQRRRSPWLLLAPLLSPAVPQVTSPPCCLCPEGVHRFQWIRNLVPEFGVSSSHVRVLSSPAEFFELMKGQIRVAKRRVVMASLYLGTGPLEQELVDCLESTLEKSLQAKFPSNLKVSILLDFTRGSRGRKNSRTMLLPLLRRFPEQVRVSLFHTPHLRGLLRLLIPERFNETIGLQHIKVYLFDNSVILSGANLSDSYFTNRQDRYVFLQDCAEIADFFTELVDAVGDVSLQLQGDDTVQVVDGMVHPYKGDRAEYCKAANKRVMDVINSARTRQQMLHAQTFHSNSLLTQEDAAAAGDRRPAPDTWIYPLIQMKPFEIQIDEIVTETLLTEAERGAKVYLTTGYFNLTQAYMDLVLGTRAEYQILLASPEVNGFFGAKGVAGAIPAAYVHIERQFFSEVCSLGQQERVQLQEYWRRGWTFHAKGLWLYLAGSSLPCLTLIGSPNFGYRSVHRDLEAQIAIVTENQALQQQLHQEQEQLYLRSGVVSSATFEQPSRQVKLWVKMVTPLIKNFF
UniProt Q13526, whole entry, looked up: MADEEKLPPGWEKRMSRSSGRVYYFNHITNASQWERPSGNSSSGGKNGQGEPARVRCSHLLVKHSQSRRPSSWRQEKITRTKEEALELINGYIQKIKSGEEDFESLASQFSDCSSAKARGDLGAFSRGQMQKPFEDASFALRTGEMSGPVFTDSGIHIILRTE
UniProt Q9Y446: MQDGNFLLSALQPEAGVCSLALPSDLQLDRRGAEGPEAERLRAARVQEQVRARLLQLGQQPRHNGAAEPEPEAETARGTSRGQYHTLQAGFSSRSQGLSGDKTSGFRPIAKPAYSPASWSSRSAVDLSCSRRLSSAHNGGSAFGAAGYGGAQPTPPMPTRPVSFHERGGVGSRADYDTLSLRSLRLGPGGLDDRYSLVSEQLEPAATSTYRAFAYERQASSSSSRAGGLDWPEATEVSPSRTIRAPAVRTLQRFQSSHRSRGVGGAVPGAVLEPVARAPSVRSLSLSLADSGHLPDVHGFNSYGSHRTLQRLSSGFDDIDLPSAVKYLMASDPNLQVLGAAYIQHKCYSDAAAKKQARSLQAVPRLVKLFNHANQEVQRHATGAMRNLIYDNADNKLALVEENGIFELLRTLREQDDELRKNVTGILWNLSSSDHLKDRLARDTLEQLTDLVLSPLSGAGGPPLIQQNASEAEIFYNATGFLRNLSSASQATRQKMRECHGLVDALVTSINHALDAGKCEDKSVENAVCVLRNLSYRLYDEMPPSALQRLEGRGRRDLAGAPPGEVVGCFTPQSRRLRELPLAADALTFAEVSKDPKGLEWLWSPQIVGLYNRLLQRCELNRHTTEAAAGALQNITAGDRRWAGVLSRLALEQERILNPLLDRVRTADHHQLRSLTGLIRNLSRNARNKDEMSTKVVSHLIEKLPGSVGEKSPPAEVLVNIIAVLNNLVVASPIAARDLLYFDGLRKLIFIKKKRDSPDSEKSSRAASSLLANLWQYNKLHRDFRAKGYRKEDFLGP
UniProt O43164: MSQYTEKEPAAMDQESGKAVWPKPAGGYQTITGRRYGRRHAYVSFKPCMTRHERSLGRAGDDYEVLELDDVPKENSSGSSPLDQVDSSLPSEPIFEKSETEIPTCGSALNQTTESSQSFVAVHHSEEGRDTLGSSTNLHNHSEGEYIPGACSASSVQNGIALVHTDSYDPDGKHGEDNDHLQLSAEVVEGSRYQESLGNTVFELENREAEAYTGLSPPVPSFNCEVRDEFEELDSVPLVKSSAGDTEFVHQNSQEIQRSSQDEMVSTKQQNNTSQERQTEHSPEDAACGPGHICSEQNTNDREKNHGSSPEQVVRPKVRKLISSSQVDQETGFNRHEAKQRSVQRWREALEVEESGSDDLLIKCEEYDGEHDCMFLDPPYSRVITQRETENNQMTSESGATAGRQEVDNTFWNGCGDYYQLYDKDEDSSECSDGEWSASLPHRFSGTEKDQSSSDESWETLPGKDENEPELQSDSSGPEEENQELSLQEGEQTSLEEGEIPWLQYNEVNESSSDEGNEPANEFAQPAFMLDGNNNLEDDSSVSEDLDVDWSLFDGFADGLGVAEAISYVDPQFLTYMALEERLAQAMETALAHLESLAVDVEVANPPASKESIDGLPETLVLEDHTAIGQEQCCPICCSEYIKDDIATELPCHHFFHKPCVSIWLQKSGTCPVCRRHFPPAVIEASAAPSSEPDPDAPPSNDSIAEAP
UniProt P48426: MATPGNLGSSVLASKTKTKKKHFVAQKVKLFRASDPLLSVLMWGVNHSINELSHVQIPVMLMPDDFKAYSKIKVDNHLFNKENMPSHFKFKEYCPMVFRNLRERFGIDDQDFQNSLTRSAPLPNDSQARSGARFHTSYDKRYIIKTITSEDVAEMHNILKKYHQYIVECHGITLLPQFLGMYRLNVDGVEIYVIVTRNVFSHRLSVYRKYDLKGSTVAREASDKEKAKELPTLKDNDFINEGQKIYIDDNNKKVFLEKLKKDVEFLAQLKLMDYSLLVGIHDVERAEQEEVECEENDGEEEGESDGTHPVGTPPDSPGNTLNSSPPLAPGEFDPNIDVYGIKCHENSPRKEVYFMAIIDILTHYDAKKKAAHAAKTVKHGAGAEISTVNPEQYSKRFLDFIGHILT
UniProt Q96BK5: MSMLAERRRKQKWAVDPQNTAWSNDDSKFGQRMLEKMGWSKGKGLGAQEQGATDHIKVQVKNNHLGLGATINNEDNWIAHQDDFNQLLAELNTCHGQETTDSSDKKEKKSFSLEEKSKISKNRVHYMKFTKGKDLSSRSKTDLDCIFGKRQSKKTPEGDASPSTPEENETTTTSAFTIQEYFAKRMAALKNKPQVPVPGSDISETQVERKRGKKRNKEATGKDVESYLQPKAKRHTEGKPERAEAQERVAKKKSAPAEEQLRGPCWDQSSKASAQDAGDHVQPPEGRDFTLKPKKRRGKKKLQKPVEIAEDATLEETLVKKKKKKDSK

Columns and labels:
Assay in all cases: log2 fold change, soluble protein after heating vs DMSO (PISA); higher = thermal stabilisation; K562 lysate, 10 uM; active = over 0.2 and 3.5 SD of the protein, either way, in both replicates (recomputed)
nilotinib = compound: Cc1cn(-c2cc(NC(=O)c3ccc(C)c(Nc4nccc(-c5cccnc5)n4)c3)cc(C(F)(F)F)c2)cn1 [nilotinib]
Method in brief: (§1)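 To prepare the extract, K562 pellets were dounce-homogenised in PBS pH 7.4 with 1 mM MgCl2, giving crude material at 1 mg/mL protein. This was treated with 10 μM compound for 30 min, then heated in aliquots for 3 min over 48°C-58°C before pooling and addition of NP-40 to 0.5% at 4°C. Centrifugation at 21,000xg for 90 min left soluble protein in the supernatant, which TMTpro 16plex LC-MS/MS quantified with equalised channel sums. Results are log-two fold changes in thermal stability compared with solvent controls, from duplicates.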

[1] = compound: Cc1nc(Nc2n[nH]c3c2CN(C(=O)N[C@H](CN(C)C)c2ccccc2)C3(C)C)c2sccc2n1
Method in brief: as §1

dasatinib = compound: Cc1nc(Nc2ncc(C(=O)Nc3c(C)cccc3Cl)s2)cc(N2CCN(CCO)CC2)n1 [dasatinib]
Method in brief: as §1

[2] = compound: Cc1ncc(-c2ccnc(Nc3ccc(S(C)(=O)=O)cc3)n2)n1C(C)C
Method in brief: as §1

[3] = compound: Cn1cc(-c2ccc3c(c2)CCN3C(=O)Cc2cccc(C(F)(F)F)c2)c2c(N)ncnc21
Method in brief: as §1

quisinostat = compound: Cn1cc(CNCC2CCN(c3ncc(C(=O)NO)cn3)CC2)c2ccccc21 [quisinostat]
Method in brief: as §1

tipifarnib = compound: Cn1cncc1[C@@](N)(c1ccc(Cl)cc1)c1ccc2c(c1)c(-c1cccc(Cl)c1)cc(=O)n2C [tipifarnib]
Method in brief: as §1

[4] = compound: NC(=O)Nc1cc(-c2cccc(F)c2)sc1C(=O)N[C@H]1CCCNC1
Method in brief: as §1

[5] = compound: NC(=O)c1cnc(N[C@@H]2CCCC[C@@H]2N)nc1Nc1cccc(-n2nccn2)c1
Method in brief: as §1

[6] = compound: NC1(c2ccc(-c3nc4ccn5c(=O)[nH]nc5c4cc3-c3ccccc3)cc2)CCC1
Method in brief: as §1

[7] = compound: NCC(=O)Nc1ccc(-n2nc(C(F)(F)F)cc2-c2ccc3c(ccc4ccccc43)c2)cc1
Method in brief: as §1

vorinostat = compound: O=C(CCCCCCC(=O)Nc1ccccc1)NO [vorinostat]
Method in brief: as §1

silmitasertib = compound: O=C(O)c1ccc2c(c1)nc(Nc1cccc(Cl)c1)c1ccncc12 [silmitasertib]
Method in brief: as §1

[8] = compound: O=C1NC(=O)C(c2cnc3ccccn23)=C1c1cn2c3c(cc(F)cc13)CN(C(=O)N1CCCCC1)CC2
Method in brief: as §1

entospletinib = compound: c1cn2cc(-c3ccc4cn[nH]c4c3)nc(Nc3ccc(N4CCOCC4)cc3)c2n1 [entospletinib]
Method in brief: as §1

Measured: log2 fold change

PGP (UniProt A6NDG6)
inactive: nilotinib 0.008 | [1] 0.026 | dasatinib 0.043 | [2] 0.037 | [3] -0.021 | quisinostat 0.02 | tipifarnib -0.021 | [4] -0.005 | [5] 0.004 | [6] 0.016 | [7] 0 | vorinostat 0.131 | silmitasertib -0.015 | [8] 0.02 | entospletinib 0.034

PIP4P2 (UniProt Q8N4L2)
inactive: [1] -0.073 | dasatinib -0.171 | [2] -0.015 | [3] -0.048 | quisinostat 0.035 | tipifarnib -0.148 | [4] -0.016 | [5] 0.121 | [6] -0.007 | [7] 0.004 | vorinostat 0.029 | silmitasertib 0.034 | [8] 0.034 | entospletinib -0.05
active: nilotinib 0.287

PLAA (UniProt Q9Y263)
inactive: nilotinib 0.015 | [1] -0.003 | dasatinib -0.017 | [2] -0.002 | [3] 0.016 | quisinostat -0.024 | tipifarnib 0.012 | [4] 0.019 | [5] -0.018 | [6] -0.001 | [7] 0.008 | vorinostat -0.021 | silmitasertib -0.025 | [8] 0.016 | entospletinib 0.001

PHB2 (UniProt Q99623)
inactive: nilotinib 0 | [1] 0 | dasatinib 0.003 | [2] 0.004 | [3] 0.008 | quisinostat -0.013 | tipifarnib -0.017 | [4] -0.018 | [5] -0.007 | [6] 0.006 | [7] 0.015 | vorinostat 0.121 | silmitasertib 0.003 | [8] -0.023 | entospletinib 0

PHKA2 (UniProt P46019)
active: [4] 0.302 | vorinostat -0.29
inactive: nilotinib 0.005 | [1] 0.163 | dasatinib -0.05 | [2] 0.019 | [3] -0.028 | quisinostat -0.148 | tipifarnib 0.015 | [5] 0.001 | [6] -0.037 | [7] 0.017 | silmitasertib 0.105 | [8] -0.048 | entospletinib -0.012

PGS1 (UniProt Q32NB8)
inactive: nilotinib -0.026 | [1] 0.073 | dasatinib -0.082 | [2] 0.045 | [3] 0.05 | quisinostat -0.073 | tipifarnib -0.022 | [4] 0.055 | [5] 0.057 | [6] -0.058 | [7] 0.079 | vorinostat 0.078 | silmitasertib 0.006 | [8] 0.066 | entospletinib -0.101

PIN1 (UniProt Q13526)
inactive: nilotinib -0.008 | [1] 0.032 | dasatinib 0.009 | [2] 0.007 | [3] 0.031 | quisinostat 0.057 | tipifarnib 0.015 | [4] 0.004 | [5] -0.015 | [6] 0.005 | [7] -0.002 | vorinostat 0.008 | silmitasertib -0.008 | [8] 0.065 | entospletinib -0.002

PKP3 isoform 2 (UniProt Q9Y446)
active: vorinostat -0.286
inactive: nilotinib -0.034 | [1] -0.021 | dasatinib 0 | [2] -0.039 | [3] -0.001 | quisinostat -0.012 | tipifarnib 0.007 | [4] -0.051 | [5] -0.021 | [6] 0.02 | [7] -0.021 | silmitasertib -0.043 | [8] -0.063 | entospletinib 0.002

PJA2 (UniProt O43164)
inactive: nilotinib -0.04 | [1] 0.032 | dasatinib -0.01 | [2] -0.047 | [3] -0.062 | quisinostat -0.023 | tipifarnib -0.085 | [4] 0.018 | [5] 0.015 | [6] 0.009 | [7] 0.073 | vorinostat -0.115 | silmitasertib 0.008 | [8] -0.012 | entospletinib 0.005

PIP4K2A (UniProt P48426)
inactive: nilotinib 0.041 | [1] -0.006 | dasatinib 0.068 | [2] 0.141 | [3] 0.046 | quisinostat -0.001 | tipifarnib -0.062 | [4] 0.039 | [5] -0.012 | [6] -0.056 | [7] 0.027 | vorinostat 0.024 | silmitasertib 0.225 | [8] 0.007 | entospletinib -0.029

PINX1 (UniProt Q96BK5)
inactive: nilotinib -0.041 | [1] 0.094 | dasatinib -0.045 | [2] 0.025 | [3] 0.034 | quisinostat -0.139 | tipifarnib -0.086 | [4] 0.034 | [5] -0.03 | [6] -0.012 | [7] 0.212 | vorinostat 0.013 | silmitasertib -0.035 | [8] -0.089 | entospletinib -0.126
